The record followed here is the supplement of paper PMC12067093, “Discovery and optimisation of a covalent ligand for TRIM25 and its application to targeted protein ubiquitination” (Chemical Science, 2025).

Amino acid sequences for entries named in this document (tags omitted). A change or cut given only in a name is not applied to a line headed by its entry.
UniProt Q9P2R3: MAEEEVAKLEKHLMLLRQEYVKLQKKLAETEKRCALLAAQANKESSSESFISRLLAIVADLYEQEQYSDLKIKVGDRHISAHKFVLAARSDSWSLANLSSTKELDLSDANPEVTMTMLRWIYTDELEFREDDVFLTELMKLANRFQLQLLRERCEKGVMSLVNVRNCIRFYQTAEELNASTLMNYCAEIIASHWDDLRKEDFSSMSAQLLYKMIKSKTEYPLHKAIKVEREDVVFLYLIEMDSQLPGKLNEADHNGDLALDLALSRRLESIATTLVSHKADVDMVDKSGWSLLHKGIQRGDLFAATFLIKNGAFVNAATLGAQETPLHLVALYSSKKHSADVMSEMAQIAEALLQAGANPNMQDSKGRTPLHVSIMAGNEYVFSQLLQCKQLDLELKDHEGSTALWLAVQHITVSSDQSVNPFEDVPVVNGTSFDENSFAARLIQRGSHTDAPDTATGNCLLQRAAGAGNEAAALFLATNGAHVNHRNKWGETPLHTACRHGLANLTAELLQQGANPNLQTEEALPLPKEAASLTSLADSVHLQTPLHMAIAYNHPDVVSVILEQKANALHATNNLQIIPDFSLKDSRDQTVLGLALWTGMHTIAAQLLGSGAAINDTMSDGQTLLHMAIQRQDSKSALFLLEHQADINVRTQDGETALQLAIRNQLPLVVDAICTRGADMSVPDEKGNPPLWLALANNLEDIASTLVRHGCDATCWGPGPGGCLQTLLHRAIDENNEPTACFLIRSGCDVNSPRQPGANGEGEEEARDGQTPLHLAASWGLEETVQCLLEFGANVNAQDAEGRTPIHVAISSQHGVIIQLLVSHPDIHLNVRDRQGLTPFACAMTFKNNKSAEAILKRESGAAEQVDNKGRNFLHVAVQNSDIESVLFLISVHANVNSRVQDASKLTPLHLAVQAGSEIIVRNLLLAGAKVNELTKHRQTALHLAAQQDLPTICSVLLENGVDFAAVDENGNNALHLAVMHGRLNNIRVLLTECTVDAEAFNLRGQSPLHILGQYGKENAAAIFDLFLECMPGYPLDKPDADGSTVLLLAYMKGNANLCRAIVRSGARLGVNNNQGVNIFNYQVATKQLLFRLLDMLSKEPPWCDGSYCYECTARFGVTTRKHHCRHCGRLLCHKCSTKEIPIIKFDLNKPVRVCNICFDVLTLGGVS
UniProt P23526: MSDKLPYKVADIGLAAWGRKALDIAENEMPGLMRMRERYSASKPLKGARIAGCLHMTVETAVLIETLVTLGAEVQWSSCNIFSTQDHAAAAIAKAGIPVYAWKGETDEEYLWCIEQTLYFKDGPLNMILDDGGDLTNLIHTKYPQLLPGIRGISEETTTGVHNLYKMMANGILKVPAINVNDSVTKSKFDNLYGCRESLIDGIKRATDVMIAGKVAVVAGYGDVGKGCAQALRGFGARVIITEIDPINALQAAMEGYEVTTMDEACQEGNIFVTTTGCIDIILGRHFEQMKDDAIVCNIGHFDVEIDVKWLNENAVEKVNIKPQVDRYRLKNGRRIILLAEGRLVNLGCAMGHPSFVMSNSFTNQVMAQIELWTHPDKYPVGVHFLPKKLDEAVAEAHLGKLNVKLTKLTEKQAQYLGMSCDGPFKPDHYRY
UniProt O43865, whole entry, looked up: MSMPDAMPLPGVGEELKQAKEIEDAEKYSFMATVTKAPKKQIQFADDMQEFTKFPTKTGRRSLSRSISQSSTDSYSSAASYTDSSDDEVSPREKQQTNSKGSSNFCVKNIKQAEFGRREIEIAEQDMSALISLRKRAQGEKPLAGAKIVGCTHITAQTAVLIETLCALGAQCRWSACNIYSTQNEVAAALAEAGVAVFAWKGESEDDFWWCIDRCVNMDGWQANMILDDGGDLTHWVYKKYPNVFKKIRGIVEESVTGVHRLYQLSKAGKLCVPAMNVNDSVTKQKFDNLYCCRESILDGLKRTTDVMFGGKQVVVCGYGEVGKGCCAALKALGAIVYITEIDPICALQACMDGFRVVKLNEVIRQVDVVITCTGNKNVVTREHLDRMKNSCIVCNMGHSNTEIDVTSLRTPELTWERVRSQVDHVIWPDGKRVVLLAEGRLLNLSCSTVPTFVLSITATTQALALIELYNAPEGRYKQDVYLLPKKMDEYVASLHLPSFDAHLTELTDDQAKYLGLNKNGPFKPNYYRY
UniProt O00170: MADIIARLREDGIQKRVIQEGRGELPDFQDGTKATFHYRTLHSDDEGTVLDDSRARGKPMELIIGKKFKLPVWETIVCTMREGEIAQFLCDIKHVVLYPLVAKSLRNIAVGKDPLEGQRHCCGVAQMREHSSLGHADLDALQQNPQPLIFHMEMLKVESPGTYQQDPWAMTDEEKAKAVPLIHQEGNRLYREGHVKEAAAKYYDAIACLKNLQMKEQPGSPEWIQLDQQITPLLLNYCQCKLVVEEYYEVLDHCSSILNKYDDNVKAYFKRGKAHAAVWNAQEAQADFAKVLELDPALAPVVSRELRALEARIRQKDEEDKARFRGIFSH
UniProt Q6P6C2: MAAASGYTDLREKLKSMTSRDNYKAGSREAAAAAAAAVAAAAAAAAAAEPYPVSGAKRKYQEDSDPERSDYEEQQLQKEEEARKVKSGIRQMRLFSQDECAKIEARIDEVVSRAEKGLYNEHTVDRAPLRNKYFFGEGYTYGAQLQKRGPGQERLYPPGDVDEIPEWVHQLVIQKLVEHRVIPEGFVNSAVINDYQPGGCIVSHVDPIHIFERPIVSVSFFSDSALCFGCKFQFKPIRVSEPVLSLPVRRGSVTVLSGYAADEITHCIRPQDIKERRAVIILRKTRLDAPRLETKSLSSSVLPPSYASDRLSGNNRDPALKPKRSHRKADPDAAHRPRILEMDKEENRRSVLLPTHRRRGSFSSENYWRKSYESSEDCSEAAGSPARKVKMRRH
UniProt P04075: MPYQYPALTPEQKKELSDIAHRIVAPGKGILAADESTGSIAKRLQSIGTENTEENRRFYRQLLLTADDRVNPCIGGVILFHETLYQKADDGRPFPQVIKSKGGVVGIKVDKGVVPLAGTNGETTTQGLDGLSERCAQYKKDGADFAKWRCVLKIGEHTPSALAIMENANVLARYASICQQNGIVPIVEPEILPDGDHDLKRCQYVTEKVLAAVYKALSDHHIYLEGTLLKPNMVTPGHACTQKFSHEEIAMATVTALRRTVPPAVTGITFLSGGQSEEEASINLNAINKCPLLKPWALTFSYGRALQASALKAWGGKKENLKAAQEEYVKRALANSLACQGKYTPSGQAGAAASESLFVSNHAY
UniProt Q9UKV5, whole entry, looked up: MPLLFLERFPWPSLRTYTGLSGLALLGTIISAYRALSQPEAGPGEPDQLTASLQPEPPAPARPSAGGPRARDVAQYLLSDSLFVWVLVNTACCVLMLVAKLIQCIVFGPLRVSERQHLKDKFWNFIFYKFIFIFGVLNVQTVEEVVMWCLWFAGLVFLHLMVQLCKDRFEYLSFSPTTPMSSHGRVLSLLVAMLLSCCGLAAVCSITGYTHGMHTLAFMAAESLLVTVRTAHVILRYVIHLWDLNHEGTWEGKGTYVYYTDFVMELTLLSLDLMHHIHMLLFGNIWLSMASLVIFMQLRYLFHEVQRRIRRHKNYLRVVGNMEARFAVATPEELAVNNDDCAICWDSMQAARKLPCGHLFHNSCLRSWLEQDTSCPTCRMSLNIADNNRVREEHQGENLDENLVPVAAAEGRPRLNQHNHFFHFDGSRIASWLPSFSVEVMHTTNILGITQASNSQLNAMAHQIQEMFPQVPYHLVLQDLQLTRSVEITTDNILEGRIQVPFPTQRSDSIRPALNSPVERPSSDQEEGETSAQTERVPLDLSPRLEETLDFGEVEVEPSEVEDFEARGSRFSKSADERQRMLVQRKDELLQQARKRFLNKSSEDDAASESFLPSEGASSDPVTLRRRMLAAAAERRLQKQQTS
UniProt Q3SY69: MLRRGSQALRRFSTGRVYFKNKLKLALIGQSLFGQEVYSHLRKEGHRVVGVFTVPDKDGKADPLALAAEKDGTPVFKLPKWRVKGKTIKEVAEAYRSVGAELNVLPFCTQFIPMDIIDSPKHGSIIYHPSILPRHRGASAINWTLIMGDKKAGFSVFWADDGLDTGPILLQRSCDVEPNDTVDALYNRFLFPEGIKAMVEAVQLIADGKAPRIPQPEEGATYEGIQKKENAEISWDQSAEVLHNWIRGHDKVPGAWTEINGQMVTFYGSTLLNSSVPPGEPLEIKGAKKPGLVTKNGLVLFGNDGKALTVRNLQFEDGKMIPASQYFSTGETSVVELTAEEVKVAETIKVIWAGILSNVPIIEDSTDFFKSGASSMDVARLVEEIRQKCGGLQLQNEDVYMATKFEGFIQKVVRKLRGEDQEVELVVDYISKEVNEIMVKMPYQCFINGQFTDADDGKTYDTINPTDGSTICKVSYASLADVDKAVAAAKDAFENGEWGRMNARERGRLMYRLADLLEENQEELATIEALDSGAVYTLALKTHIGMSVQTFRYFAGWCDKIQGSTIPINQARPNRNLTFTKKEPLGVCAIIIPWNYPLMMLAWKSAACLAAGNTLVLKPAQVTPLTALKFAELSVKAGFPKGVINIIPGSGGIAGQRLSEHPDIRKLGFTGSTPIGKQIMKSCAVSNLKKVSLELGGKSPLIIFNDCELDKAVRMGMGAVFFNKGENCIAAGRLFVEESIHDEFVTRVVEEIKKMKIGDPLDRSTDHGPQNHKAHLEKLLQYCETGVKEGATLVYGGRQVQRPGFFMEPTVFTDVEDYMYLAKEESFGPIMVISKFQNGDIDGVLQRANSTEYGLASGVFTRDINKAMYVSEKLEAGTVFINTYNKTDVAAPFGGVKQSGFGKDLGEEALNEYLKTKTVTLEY
UniProt Q02040: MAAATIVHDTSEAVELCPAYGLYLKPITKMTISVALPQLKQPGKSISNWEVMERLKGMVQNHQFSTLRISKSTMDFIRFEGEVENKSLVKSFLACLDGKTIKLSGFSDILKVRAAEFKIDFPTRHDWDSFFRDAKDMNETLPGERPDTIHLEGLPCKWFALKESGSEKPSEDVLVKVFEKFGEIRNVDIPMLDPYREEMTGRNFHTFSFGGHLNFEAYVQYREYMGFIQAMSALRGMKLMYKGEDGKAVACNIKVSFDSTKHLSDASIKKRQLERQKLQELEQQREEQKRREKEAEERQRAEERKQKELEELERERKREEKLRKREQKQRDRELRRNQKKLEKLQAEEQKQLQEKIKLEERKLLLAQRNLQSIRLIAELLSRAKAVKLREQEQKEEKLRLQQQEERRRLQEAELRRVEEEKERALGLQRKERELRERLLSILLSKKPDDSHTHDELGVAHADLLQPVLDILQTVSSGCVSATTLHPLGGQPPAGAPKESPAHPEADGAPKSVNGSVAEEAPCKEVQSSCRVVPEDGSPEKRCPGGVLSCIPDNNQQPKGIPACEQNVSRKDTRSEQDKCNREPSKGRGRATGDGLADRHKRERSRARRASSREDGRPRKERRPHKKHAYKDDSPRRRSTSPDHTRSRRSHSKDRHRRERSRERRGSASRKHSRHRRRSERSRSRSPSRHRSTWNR
UniProt Q9NYG5, whole entry, looked up: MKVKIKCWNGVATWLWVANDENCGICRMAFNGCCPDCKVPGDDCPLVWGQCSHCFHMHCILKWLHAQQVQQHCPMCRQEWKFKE
UniProt Q8IZ83: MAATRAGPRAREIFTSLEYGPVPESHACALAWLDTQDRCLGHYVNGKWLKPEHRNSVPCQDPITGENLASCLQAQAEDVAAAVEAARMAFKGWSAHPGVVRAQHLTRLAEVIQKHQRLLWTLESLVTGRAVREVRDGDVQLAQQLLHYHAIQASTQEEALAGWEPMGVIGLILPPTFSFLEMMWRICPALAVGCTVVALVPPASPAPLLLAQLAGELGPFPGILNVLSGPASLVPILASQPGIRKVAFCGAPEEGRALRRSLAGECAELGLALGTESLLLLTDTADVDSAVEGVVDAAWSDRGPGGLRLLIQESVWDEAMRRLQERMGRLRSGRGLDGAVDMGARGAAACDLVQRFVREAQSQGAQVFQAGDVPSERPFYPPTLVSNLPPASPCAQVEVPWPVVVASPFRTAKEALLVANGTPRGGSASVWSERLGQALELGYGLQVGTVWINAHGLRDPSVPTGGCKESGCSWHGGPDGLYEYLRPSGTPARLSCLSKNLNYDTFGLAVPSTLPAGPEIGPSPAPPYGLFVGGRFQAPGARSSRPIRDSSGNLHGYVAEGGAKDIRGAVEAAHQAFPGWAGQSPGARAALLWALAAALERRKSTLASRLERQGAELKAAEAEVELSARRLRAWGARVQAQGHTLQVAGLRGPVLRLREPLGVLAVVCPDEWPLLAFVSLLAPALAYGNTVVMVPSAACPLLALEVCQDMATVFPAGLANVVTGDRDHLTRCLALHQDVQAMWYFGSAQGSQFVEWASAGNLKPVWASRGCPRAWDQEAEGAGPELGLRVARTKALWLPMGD

Some of the results follow.
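Also: competitive chemoproteomic profiling in live THP-1 cells with an iodoacetamide desthiobiotin (IA-DTB) probe, comparing probe-labelled peptide intensities in compound-treated cells against DMSO-treated controls.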

Compound in the test: CC1Cc2ccccc2N1C(=O)C1CCCN(C1)C(=O)CCl (mixture of isomers) [TRIM25 ligand 11 (diastereomer mixture)]
Kind of test: probe-labelled cysteine peptide fold change vs DMSO (competition) (log2 fold change); higher = less target engagement (more negative = stronger competition). To be noted: 10 µM; THP-1; incubation time: 4 h.
Take “ANKFY1_Q9P2R3_34_CALLAAQANK (UniProt Q9P2R3)”: the “probe-labelled cysteine peptide fold change” value stood at 0.0634.
“AHCY_P23526_297_HFEQMKDDAIVCNIGHFDVEIDVK (UniProt P23526)”: the “probe-labelled cysteine peptide fold change” value is -0.00275.
In the case of “AIFM1_O95831_317_SITIIGGGFLGSELACALGR (UniProt O95831)” it was -0.11.
Take “AHCYL1_O43865_272_LCVPAMNVNDSVTK (UniProt O43865)”: the “probe-labelled cysteine peptide fold change” value was determined as 0.0544.
Regarding “AIP_O00170_254_LVVEEYYEVLDHCSSILNK (UniProt O00170)”, the “probe-labelled cysteine peptide fold change” value was determined as 0.0526.
The result for “ALKBH5_Q6P6C2_100_LFSQDECAK (UniProt Q6P6C2)” reads -0.0108; that for “ALAD_P13716_162_AGCQVVAPSDMMDGR (UniProt P13716)”, -0.0192; that for “AKAP9_Q99996_2125_CSELLLSK (UniProt Q99996)”, -0.159.
The result for “ALDOA_P04075_178_YASICQQNGIVPIVEPEILPDGDHDLK (UniProt P04075)” reads 0.162; that for “AKR1B1_P15121_45_HIDCAHVYQNENEVGVAIQEK (UniProt P15121)”, 0.188; that for “ANGEL2_Q5VTE6_305_IPYAACPAICVANTHLLYNPR (UniProt Q5VTE6)”, -0.0433.
Take “ANAPC7_Q9UJX3_259_AISTICSLEK (UniProt Q9UJX3)”: the “probe-labelled cysteine peptide fold change” value is -0.0651.
As to “AMFR_Q9UKV5_364_KLPCGHLFHNSCLR (UniProt Q9UKV5)”, the “probe-labelled cysteine peptide fold change” value was determined as 0.116.
In the case of “AHCYL1_O43865_392_NSCIVCNMGHSNTEIDVTSLR (UniProt O43865)” it was 0.056; in that of “ANK3_Q12955_4233_LDDSPDQCR (UniProt Q12955)”, -0.109; in that of “ANKFY1_Q9P2R3_34_RCALLAAQANK (UniProt Q9P2R3)”, 0.0574.
Consider “ALDH6A1_Q02252_86_AEMDAAIASCK (UniProt Q02252)”, for which the “probe-labelled cysteine peptide fold change” value is 0.0424.
In the case of “AKR7A2_O43488_132_RLQCPQVDLFYLHAPDHGTPVEETLHACQR (UniProt O43488)” it was -0.215.
The result for “ALDH1B1_P30837_179_HEPVGVCGQIIPWNFPLVMQGWK (UniProt P30837)” reads -0.0495; that for “AHCYL1_O43865_215_CVNMDGWQANMILDDGGDLTHWVYKK (UniProt O43865)”, -0.0274; that for “ALS2_Q96Q42_1454_SFCTGK (UniProt Q96Q42)”, 0.0963.
The result for “ANAPC4_Q9UJX5_553_SMNQAICIPLYR (UniProt Q9UJX5)” reads -0.169; that for “ALDH5A1_P51649_93_WLPAAATFPVQDPASGAALGMVADCGVR (UniProt P51649)”, 0.0445; that for “ALDH9A1_P49189_376_DGYYMRPCVLTNCR (UniProt P49189)”, 0.146.
“ANAPC1_Q9H1A4_962_DAIYHCR (UniProt Q9H1A4)”: the “probe-labelled cysteine peptide fold change” value was -0.0432.
As to “AKR7A2_O43488_132+156_RLQCPQVDLFYLHAPDHGTPVEETLHACQR (UniProt O43488)”, the “probe-labelled cysteine peptide fold change” value was -0.17.
The result for “ALG11_Q2TAA5_72_NQMVIAFFHPYCNAGGGGER (UniProt Q2TAA5)” reads -0.0377; that for “AHCTF1_Q8WYP5_1261_CAVPVETEWLK (UniProt Q8WYP5)”, -0.467; that for “ALDH1L2_Q3SY69_472_TYDTINPTDGSTICK (UniProt Q3SY69)”, 0.162.
In the case of “ALDH6A1_Q02252_249_LLQDSGAPDGTLNIIHGQHEAVNFICDHPDIK (UniProt Q02252)” it was -8.54e-05; in that of “AKAP17A_Q02040_563_GIPACEQNVSR (UniProt Q02040)”, -0.0813; in that of “AK2_P54819_40_LAENFCVCHLATGDMLR (UniProt P54819)”, 0.0915.
Consider “ANK2_Q01484_375_APVDDVTLDYLTALHVAAHCGHYR (UniProt Q01484)”, for which the “probe-labelled cysteine peptide fold change” value is 0.000842.
In the case of “ANAPC11_Q9NYG5_51_VPGDDCPLVWGQCSHCFHMHCILK (UniProt Q9NYG5)” it was 0.248; in that of “ALDH16A1_Q8IZ83_249_KVAFCGAPEEGR (UniProt Q8IZ83)”, -0.0454; in that of “AHCY_P23526_421_QAQYLGMSCDGPFKPDHYR (UniProt P23526)”, -0.0187.
